Experimental data published in the supplement of paper PMC8612539.
In brackets after ≈: the same amount, converted by molar mass. This continues a long series; more values of the same kind are listed elsewhere.

Tested on: Escherichia coli
Assay: minimum inhibitory concentration (MIC)
Description: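 Broth microdilution MIC (Sensititre BOPO7F bovine plate, CLSI methods) of 19 antimicrobials against field isolates of P. multocida, M. haemolytica, H. somni (deep nasopharyngeal swabs) and E. coli, Enterococcus spp. (rectal swabs) from weaned dairy heifers. Incubation 16-24 h at 35 C. MIC is the lowest concentration preventing visible growth. Values with <= or > lie at the tested range limits. Trimethoprim-sulfamethoxazole is given as the trimethoprim component of a 1:19 mixture.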

CC[C@H]1OC(=O)C[C@@H](O)[C@H](C)[C@@H](O[C@@H]2O[C@H](C)[C@@H](O[C@H]3C[C@@](C)(O)[C@@H](O)[C@H](C)O3)[C@H](N(C)C)[C@H]2O)[C@@H](CC=O)C[C@@H](C)C(=O)/C=C/C(C)=C/[C@@H]1CO[C@@H]1O[C@H](C)[C@@H](O)[C@@H](OC)[C@H]1OC [Tylosin]
Conditions | minimum inhibitory concentration [µg/mL]
isolate (source animal id): 1 | > 32
isolate (source animal id): 2 | > 32
isolate (source animal id): 3 | > 32
isolate (source animal id): 4 | > 32
isolate (source animal id): 5 | > 32
isolate (source animal id): 6 | > 32
isolate (source animal id): 7 | > 32
isolate (source animal id): 17 | > 32
isolate (source animal id): 18 | > 32
isolate (source animal id): 19 | > 32
isolate (source animal id): 20 | > 32
isolate (source animal id): 21 | > 32
isolate (source animal id): 22 | > 32
isolate (source animal id): 23 | > 32
isolate (source animal id): 24 | > 32
isolate (source animal id): 25 | > 32
isolate (source animal id): 26 | > 32
isolate (source animal id): 27 | > 32
isolate (source animal id): 28 | > 32
isolate (source animal id): 29 | > 32
isolate (source animal id): 30 | > 32
isolate (source animal id): 31 | > 32
isolate (source animal id): 32 | > 32
isolate (source animal id): 33 | > 32
isolate (source animal id): 34 | > 32
isolate (source animal id): 35 | > 32
isolate (source animal id): 36 | > 32
isolate (source animal id): 37 | > 32
isolate (source animal id): 38 | > 32
isolate (source animal id): 39 | > 32
isolate (source animal id): 40 | > 32
isolate (source animal id): 41 | > 32
isolate (source animal id): 42 | > 32
isolate (source animal id): 43 | > 32
isolate (source animal id): 44 | > 32
isolate (source animal id): 45 | > 32
isolate (source animal id): 46 | > 32
isolate (source animal id): 47 | > 32
isolate (source animal id): 48 | > 32
isolate (source animal id): 49 | > 32
isolate (source animal id): 50 | > 32
isolate (source animal id): 51 | > 32
isolate (source animal id): 52 | > 32
isolate (source animal id): 53 | > 32
isolate (source animal id): 54 | > 32
isolate (source animal id): 55 | > 32
isolate (source animal id): 56 | > 32
isolate (source animal id): 57 | > 32
isolate (source animal id): 58 | > 32
isolate (source animal id): 59 | > 32
isolate (source animal id): 60 | > 32
isolate (source animal id): 61 | > 32
isolate (source animal id): 62 | > 32
isolate (source animal id): 63 | > 32
isolate (source animal id): 64 | > 32
isolate (source animal id): 65 | > 32
isolate (source animal id): 66 | > 32
isolate (source animal id): 67 | > 32
isolate (source animal id): 68 | > 32
isolate (source animal id): 69 | > 32
isolate (source animal id): 70 | > 32
isolate (source animal id): 71 | > 32
isolate (source animal id): 72 | > 32
isolate (source animal id): 73 | > 32
isolate (source animal id): 74 | > 32
isolate (source animal id): 75 | > 32
isolate (source animal id): 76 | > 32
isolate (source animal id): 77 | > 32
isolate (source animal id): 78 | > 32
isolate (source animal id): 79 | > 32
isolate (source animal id): 80 | > 32
isolate (source animal id): 81 | > 32
isolate (source animal id): 82 | > 32
isolate (source animal id): 83 | > 32
isolate (source animal id): 84 | > 32
isolate (source animal id): 85 | > 32
isolate (source animal id): 86 | > 32
isolate (source animal id): 87 | > 32
isolate (source animal id): 88 | > 32
isolate (source animal id): 89 | > 32
isolate (source animal id): 90 | > 32
isolate (source animal id): 91 | > 32
isolate (source animal id): 92 | > 32
isolate (source animal id): 93 | > 32
isolate (source animal id): 94 | > 32
isolate (source animal id): 95 | > 32
isolate (source animal id): 96 | > 32
isolate (source animal id): 97 | > 32
isolate (source animal id): 189 | > 32
isolate (source animal id): 190 | > 32
isolate (source animal id): 191 | > 32
isolate (source animal id): 192 | > 32
isolate (source animal id): 193 | > 32
isolate (source animal id): 194 | > 32
isolate (source animal id): 195 | > 32
isolate (source animal id): 196 | > 32
isolate (source animal id): 197 | > 32
isolate (source animal id): 198 | > 32
isolate (source animal id): 199 | > 32
isolate (source animal id): 200 | > 32
isolate (source animal id): 201 | > 32
isolate (source animal id): 202 | > 32
isolate (source animal id): 203 | > 32
isolate (source animal id): 204 | > 32
isolate (source animal id): 205 | > 32
isolate (source animal id): 206 | > 32
isolate (source animal id): 207 | > 32
isolate (source animal id): 208 | > 32
isolate (source animal id): 209 | > 32
isolate (source animal id): 210 | > 32
isolate (source animal id): 211 | > 32
isolate (source animal id): 212 | > 32
isolate (source animal id): 213 | > 32
isolate (source animal id): 214 | > 32
isolate (source animal id): 215 | > 32
isolate (source animal id): 216 | > 32
isolate (source animal id): 217 | > 32
isolate (source animal id): 218 | > 32
isolate (source animal id): 219 | > 32
isolate (source animal id): 220 | > 32
isolate (source animal id): 221 | > 32
isolate (source animal id): 222 | > 32
isolate (source animal id): 223 | > 32
isolate (source animal id): 224 | > 32
isolate (source animal id): 225 | > 32
isolate (source animal id): 226 | > 32
isolate (source animal id): 227 | > 32
isolate (source animal id): 228 | > 32
isolate (source animal id): 229 | > 32
isolate (source animal id): 230 | > 32
isolate (source animal id): 231 | > 32
isolate (source animal id): 232 | > 32
isolate (source animal id): 233 | > 32
isolate (source animal id): 234 | > 32
isolate (source animal id): 235 | > 32
isolate (source animal id): 236 | > 32
isolate (source animal id): 237 | > 32
isolate (source animal id): 238 | > 32
isolate (source animal id): 239 | > 32
isolate (source animal id): 240 | > 32
isolate (source animal id): 241 | > 32
isolate (source animal id): 242 | > 32
isolate (source animal id): 243 | > 32
isolate (source animal id): 244 | > 32
isolate (source animal id): 245 | > 32
isolate (source animal id): 246 | > 32
isolate (source animal id): 247 | > 32
isolate (source animal id): 248 | > 32
isolate (source animal id): 249 | > 32
isolate (source animal id): 250 | > 32
isolate (source animal id): 251 | > 32
isolate (source animal id): 252 | > 32
isolate (source animal id): 253 | > 32
isolate (source animal id): 254 | > 32
isolate (source animal id): 255 | > 32
isolate (source animal id): 256 | > 32
isolate (source animal id): 257 | > 32
isolate (source animal id): 258 | > 32
isolate (source animal id): 259 | > 32
isolate (source animal id): 260 | > 32
isolate (source animal id): 261 | > 32
isolate (source animal id): 262 | > 32
isolate (source animal id): 263 | > 32
isolate (source animal id): 264 | > 32
isolate (source animal id): 265 | > 32
isolate (source animal id): 266 | > 32
isolate (source animal id): 267 | > 32
isolate (source animal id): 268 | > 32
isolate (source animal id): 269 | > 32
isolate (source animal id): 270 | > 32
isolate (source animal id): 271 | > 32
isolate (source animal id): 272 | > 32
isolate (source animal id): 273 | > 32
isolate (source animal id): 274 | > 32
isolate (source animal id): 275 | > 32
isolate (source animal id): 276 | > 32
isolate (source animal id): 277 | > 32
isolate (source animal id): 278 | > 32
isolate (source animal id): 279 | > 32
isolate (source animal id): 280 | > 32
isolate (source animal id): 281 | > 32
isolate (source animal id): 282 | > 32
isolate (source animal id): 283 | > 32
isolate (source animal id): 284 | > 32
isolate (source animal id): 285 | > 32
isolate (source animal id): 286 | > 32
isolate (source animal id): 287 | > 32
isolate (source animal id): 288 | > 32
isolate (source animal id): 289 | > 32
isolate (source animal id): 290 | > 32
isolate (source animal id): 291 | > 32
isolate (source animal id): 292 | > 32
isolate (source animal id): 293 | > 32
isolate (source animal id): 294 | 32 (≈ 34.9 µM)
isolate (source animal id): 295 | > 32
isolate (source animal id): 296 | > 32
isolate (source animal id): 297 | > 32
isolate (source animal id): 298 | > 32
isolate (source animal id): 299 | > 32
isolate (source animal id): 300 | > 32
isolate (source animal id): 301 | > 32
isolate (source animal id): 302 | > 32
isolate (source animal id): 303 | > 32
isolate (source animal id): 304 | > 32
isolate (source animal id): 305 | > 32
isolate (source animal id): 306 | > 32
isolate (source animal id): 307 | > 32
isolate (source animal id): 308 | > 32
isolate (source animal id): 309 | > 32
isolate (source animal id): 310 | > 32
isolate (source animal id): 311 | > 32
isolate (source animal id): 312 | > 32
isolate (source animal id): 313 | > 32
isolate (source animal id): 314 | > 32
isolate (source animal id): 315 | > 32
isolate (source animal id): 316 | > 32
isolate (source animal id): 317 | > 32
isolate (source animal id): 318 | > 32
isolate (source animal id): 319 | > 32
isolate (source animal id): 320 | > 32
isolate (source animal id): 321 | > 32
isolate (source animal id): 322 | > 32
isolate (source animal id): 323 | > 32
isolate (source animal id): 324 | > 32
isolate (source animal id): 325 | > 32
isolate (source animal id): 326 | > 32
isolate (source animal id): 327 | > 32
isolate (source animal id): 328 | > 32
isolate (source animal id): 329 | > 32
isolate (source animal id): 330 | > 32
isolate (source animal id): 331 | > 32
isolate (source animal id): 332 | > 32
isolate (source animal id): 333 | > 32
isolate (source animal id): 334 | > 32
isolate (source animal id): 335 | > 32
isolate (source animal id): 336 | > 32
isolate (source animal id): 337 | > 32
isolate (source animal id): 338 | > 32
isolate (source animal id): 339 | > 32
isolate (source animal id): 340 | > 32
isolate (source animal id): 341 | > 32
